Percent effect of library compounds

Sequences of proteins named here, by UniProt entry; tags and fusion partners are left off.
UniProt P9WNZ1, whole entry: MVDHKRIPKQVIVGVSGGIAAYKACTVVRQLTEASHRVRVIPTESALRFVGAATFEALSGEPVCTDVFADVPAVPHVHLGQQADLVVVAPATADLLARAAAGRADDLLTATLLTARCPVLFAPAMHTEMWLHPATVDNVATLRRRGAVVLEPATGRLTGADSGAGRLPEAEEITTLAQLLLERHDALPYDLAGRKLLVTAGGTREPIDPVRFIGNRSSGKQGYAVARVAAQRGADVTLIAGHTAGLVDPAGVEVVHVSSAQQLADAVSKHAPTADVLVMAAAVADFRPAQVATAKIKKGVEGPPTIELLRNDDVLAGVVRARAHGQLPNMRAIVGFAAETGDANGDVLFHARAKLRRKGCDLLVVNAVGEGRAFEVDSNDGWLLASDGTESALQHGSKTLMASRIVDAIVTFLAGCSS

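Enzyme assay of CoaBC with a phosphate dye (Biomol Green) read at 650 nm. Target: Coenzyme A biosynthesis protein CoaBC, Mycobacterium tuberculosis (UniProt P9WNZ1). Compounds at 30 µM. Higher reads as stronger inhibition, judged from the few compounds that gave an IC50. Most strong results did not repeat in a second test. Size under these conditions: about 67,000 compounds, about 40 of them at 50% or above in at least one test.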

Results are given as percent effect.
The record does not define 0% and 100%; most values in the screen are far below 50% and negative numbers occur (in some assays of this library far below -100).
Compounds were drawn at random from those tested, without regard to their results.

SMILES	Percent Effect
O=C(NCC(=O)N1CCCC1Cc1cccc(F)c1)c1ccccn1 (stereo not drawn)	-2.335
COCCSCC(=O)NCc1ccnc(N(C)C)c1	3.893
Cc1cc(C)c2nc(CN3CCOCC(O)C3)cc(O)c2c1 (stereo not drawn)	-1.19
CC(C)(Oc1ccc(C(N)=O)cc1)C(=O)N(CCC#N)C1CC1	0.9709
CS(=O)(=O)N1CC2(CCCN(CC3CC3)C2)Cc2ccccc21 (stereo not drawn)	-6.842
COc1ccccc1CC1CCCN(C(=O)c2nccnc2N)C1 (stereo not drawn)	6.087
CC1CCN(C[C@H]2CN3CC[C@H]2C[C@@H]3CNC(=O)Nc2ccsc2)CC1	-9.255
COc1ccc(S(=O)(=O)NCC(c2cccn2C)N(C)C)c(C)c1 (stereo not drawn)	0.8739
CN(Cc1ccccn1)C(=O)c1nc(S(C)(=O)=O)n2ccccc12	0.2632
CC(Cc1cccc(Cl)c1)NC(=O)NCc1ncnn1C (stereo not drawn)	8.779
Cc1ccc2c(c1C)OCC2NCc1ccc(C#N)cc1 (stereo not drawn)	13.84
CC(CNCc1ccncc1)Oc1ccccn1 (stereo not drawn)	2.826
CC(=O)NCCn1ccnc1-c1cccc(C(C)N(C)C)c1 (stereo not drawn)	-53.41
CCc1ccccc1-c1cc(C)nc(N)n1	13.64
Cc1nc(C)n(CC2CN(CC(=O)Nc3ccncc3)CCO2)n1 (stereo not drawn)	2.041
c1cc(CC2CCCNC2)nc(NCCc2cnccn2)c1 (stereo not drawn)	-29.57
CCCN1C(=O)C2(CCCCC2)NC1c1c[nH]nc1-c1cccnc1 (stereo not drawn)	11.11
CC(C)CNC(=O)C1CC(=O)N(c2n[nH]c3ccccc23)C1 (stereo not drawn)	1.01
COc1cccc(-c2cc(C(=O)NCCCn3nc(C)cc3C)[nH]n2)c1	0.3468
O=C(O)c1ccc(=O)n(CC(c2ccc(Cl)cc2)N2CCOCC2)c1 (stereo not drawn)	-3.679
O=C(Cc1ccc(S(=O)(=O)C(F)F)cc1)N1CCC1	-0.8403
O=C(CCc1cc2n(n1)CCN(Cc1ncc[nH]1)C2)N1CCCC1	13.16
CC(=O)c1ccc(OCC(=O)NC(C)CCc2ccco2)cc1 (stereo not drawn)	-5.33
NC(=O)C1CCN(C(=O)NCc2ccccc2Cn2ccnc2)CC1	1.711
Cc1noc(C)c1CN1CCc2ncc(CN3CCCC3)n2CC1	1.789
CN(C)Cc1nn(C)c2c1CN(C(=O)Nc1ccc(F)cc1)C2	-18.75
c1cnc(N2CCOC3(CCCN(c4cnccn4)C3)C2)nc1 (stereo not drawn)	-11.61
Cc1nc(CN2CCN(C(C)c3nc(C(C)C)no3)CC2)oc1C (stereo not drawn)	1.79
CN(C)C(=O)CS(=O)(=O)Cc1cc(Cl)c2c(c1)OCCO2	-0.1277
O=C(NCC(F)F)c1ccc(S(=O)(=O)NCCc2ccncc2)cc1	5.411
O=C(c1ccccc1F)N1CCC2(CC1)CC(Oc1ccccn1)CO2 (stereo not drawn)	2.723
Cc1ccccc1C(CC(=O)N1CCc2sccc2C1)NC(N)=O (stereo not drawn)	5.395
Cc1ccc2c(c1)OCCCC2NC1CCN(C)CC1 (stereo not drawn)	-24.2
O=C(C1=CCCCC1)N1CCO[C@H]2[C@H](Oc3ccccn3)CC[C@@H]21	13.36
COCCN1CCOCC2(C1)CN(C(=O)c1conc1C)CCO2 (stereo not drawn)	-0.8485
CC(C)Nc1nc2c(c(NC3CC3)n1)CCN(Cc1nccn1C)CC2	-20.7
CCOC(=O)CNC(=O)c1cc(-c2ccccc2)nc2ncnn12	9.3
CC(C)N1CCC(Cc2cncc(-c3cc(F)ccc3C(=O)O)n2)CC1	0.9685
Cn1nnc2c1C(COCc1cccnc1)CN(Cc1ccoc1)C2 (stereo not drawn)	5.462
N#CC1(C(=O)N2CCCN(Cc3cscn3)CC2)CCCCC1	5.357
CCn1cc(S(=O)(=O)Nc2nc3c(s2)CC(C)CC3)cn1 (stereo not drawn)	3.367
Cc1ccoc1C(=O)N1C[C@H](OCC2CC2)[C@H]2OCCC[C@H]21	3.185
O=C(Nc1ccc(CCN2CCSCC2)cc1)NC1CC1	6.112
Cn1ccnc1CN1CCC(c2nc3ccccc3n2C)CC1	-0.2545
CC(C)N(CCO)C(=O)c1cc(COc2ccc3c(c2)CCCC3)on1	12.13
C[C@@H]1C[C@@H]2CCN(Cc3ccccn3)C[C@H]2O1	0.2028
CC(C)n1cnnc1CN(C)C(=O)c1cnn2ccccc12	-0.2123
O=C(c1ccoc1)N1CCO[C@]2(CCC[C@H]2COCc2cccnc2)C1	0.6515
CC(C)N1CCCN(c2nc(-c3cccnc3)nc3c2cnn3C)CC1	-18.05
COCC1c2c(cnn2CC2CC2)CCN1Cc1cccs1 (stereo not drawn)	2.157

Measurements from “University of Dundee, Small-Polar-MMV Screening Library” (2021), ChEMBL document CHEMBL3988442.